Several values for one entry are separate records, joined by “and”; a condition that tells them apart may be missing. Equal values may be shown once.
Legend:
OATP1B1 = molecular target: T1, OATP1B1 (Homo sapiens, UniProt Q9Y6L6); test: OATP1B1 inhibitor (IC50) assessment, atorvastatin uptake in transfected HEK cells; conditions: absence of TUDCA and PB or rifamycin SV
T1 sequence (Q9Y6L6 1-691): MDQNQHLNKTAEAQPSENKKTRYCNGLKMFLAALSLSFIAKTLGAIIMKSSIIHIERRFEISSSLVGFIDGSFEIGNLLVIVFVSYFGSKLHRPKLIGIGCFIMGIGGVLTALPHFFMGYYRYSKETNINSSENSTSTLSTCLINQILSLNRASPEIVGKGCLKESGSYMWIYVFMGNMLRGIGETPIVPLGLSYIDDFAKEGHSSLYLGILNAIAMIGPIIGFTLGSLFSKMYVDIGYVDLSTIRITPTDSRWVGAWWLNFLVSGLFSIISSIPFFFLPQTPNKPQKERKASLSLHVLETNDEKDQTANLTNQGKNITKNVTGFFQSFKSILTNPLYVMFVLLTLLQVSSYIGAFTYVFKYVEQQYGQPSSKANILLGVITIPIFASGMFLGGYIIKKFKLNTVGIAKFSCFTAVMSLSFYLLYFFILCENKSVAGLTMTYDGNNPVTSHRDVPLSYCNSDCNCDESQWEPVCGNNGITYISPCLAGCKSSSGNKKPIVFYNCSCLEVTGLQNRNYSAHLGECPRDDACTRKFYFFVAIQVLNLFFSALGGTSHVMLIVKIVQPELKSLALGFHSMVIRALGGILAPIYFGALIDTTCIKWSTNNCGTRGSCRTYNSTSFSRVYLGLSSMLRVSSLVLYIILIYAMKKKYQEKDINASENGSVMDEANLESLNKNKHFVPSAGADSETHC

OATP1B3 = molecular target: T2, OATP1B3 (Homo sapiens, UniProt Q9NPD5); test: OATP1B3 inhibitor (IC50) assessment, atorvastatin uptake in transfected HEK cells; conditions: absence of TUDCA and PB or rifamycin SV
T2 sequence (Q9NPD5 1-702): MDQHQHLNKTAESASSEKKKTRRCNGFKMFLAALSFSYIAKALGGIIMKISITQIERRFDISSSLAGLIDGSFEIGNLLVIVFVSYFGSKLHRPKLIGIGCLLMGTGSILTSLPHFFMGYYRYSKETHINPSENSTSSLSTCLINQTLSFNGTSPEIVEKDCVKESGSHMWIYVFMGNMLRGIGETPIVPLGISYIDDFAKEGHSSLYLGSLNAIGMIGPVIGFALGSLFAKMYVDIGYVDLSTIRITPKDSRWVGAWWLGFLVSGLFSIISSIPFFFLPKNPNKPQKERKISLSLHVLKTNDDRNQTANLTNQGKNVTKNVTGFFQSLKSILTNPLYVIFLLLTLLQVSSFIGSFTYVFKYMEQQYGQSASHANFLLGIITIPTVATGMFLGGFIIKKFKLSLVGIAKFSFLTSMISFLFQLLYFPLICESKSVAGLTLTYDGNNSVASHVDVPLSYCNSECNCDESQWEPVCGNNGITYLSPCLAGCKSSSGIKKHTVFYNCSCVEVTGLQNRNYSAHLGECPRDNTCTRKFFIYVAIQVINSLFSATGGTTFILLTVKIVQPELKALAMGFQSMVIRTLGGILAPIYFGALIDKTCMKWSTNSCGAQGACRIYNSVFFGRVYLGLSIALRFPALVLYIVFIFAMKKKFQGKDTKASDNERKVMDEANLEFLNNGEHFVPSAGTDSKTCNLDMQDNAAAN

OAT3 = molecular target: T3, OAT3 (Homo sapiens, UniProt Q8TCC7); test: OAT3 inhibitor (IC50) assessment, furosemide uptake in transfected HEK cells
T3 sequence (Q8TCC7 1-542): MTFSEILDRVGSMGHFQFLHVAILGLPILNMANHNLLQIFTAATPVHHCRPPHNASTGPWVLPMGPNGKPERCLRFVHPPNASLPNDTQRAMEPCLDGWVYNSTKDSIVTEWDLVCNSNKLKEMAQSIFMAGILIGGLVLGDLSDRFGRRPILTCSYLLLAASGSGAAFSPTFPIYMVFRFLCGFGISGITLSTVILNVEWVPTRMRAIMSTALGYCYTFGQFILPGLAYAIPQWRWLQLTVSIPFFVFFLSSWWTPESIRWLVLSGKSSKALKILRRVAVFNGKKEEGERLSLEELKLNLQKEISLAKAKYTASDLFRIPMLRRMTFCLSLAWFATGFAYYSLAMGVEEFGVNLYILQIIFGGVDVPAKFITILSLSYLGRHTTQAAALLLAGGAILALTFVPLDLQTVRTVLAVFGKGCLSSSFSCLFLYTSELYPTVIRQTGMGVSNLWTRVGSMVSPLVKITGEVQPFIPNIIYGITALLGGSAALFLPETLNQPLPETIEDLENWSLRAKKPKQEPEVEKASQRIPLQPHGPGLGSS

[1] = 5 μM Furosemide alone, 5 min, replicates 1, 2 and Average

SMILES	influx rate ratio of atorvastatin (OATP1B1 over vector control) (OATP1B1)	influx rate ratio of atorvastatin (OATP1B3 over vector control) (OATP1B3)	Net Influx Rate of Furosemide (OAT3) (OAT3; 5 μM Furosemide alone) [pmol/mg protein/minute]	influx rate ratio of furosemide (OAT3 over vector control) (OAT3; 5 μM Furosemide alone)	Influx Rate of Furosemide, OAT3-HEK Cells (OAT3; [1])	Influx Rate of Furosemide, Vector Control Cells (OAT3; [1])	influx rate ratio of furosemide (OAT3 over vector control) (OAT3; absence of TUDCA and PB or probenecid)
CC(C)c1c(C(=O)Nc2ccccc2)c(-c2ccccc2)c(-c2ccc(F)cc2)n1CC[C@@H](O)C[C@@H](O)CC(=O)O [atorvastatin]	15.1	8.23					
NS(=O)(=O)c1cc(C(=O)O)c(NCc2ccco2)cc1Cl [furosemide]			42.5	20.1	47.3 pmol/mg protein/minute and 44.8 pmol/mg protein/minute and 42.2 pmol/mg protein/minute	1.98 pmol/mg protein/minute and 2.23 pmol/mg protein/minute and 2.47 pmol/mg protein/minute	20.1
